Reference: PubChem BioAssay AID248 (DTP/NCI, 2004)
The list shows only some results of the screen, not a fair sample: it is rich in T/C values a quarter to a half above the control, in often repeated tests (any T/C) and in doses without a T/C. Other doses and runs of a compound stand elsewhere. T/C gives the treated animals as a percentage of the vehicle group. Some doses have a count of surviving animals in place of a T/C: the source files T/C as zero there, which appears to mark a toxic dose or a test without result, not a measured value. Some doses without a T/C left all or most animals alive at the check, yet need not have been tolerated: survival well below the control is almost never listed, so the zero probably covers shortened survival too. Survivors were counted at the toxicity check, usually on the fifth day, unless a day is given; later deaths do not show. Schedule codes are those of the source, read here as Q, the interval in days (D) or hours (H), X, the number of doses. Where survival is the endpoint, this PubChem deposit counts one and a half times the control or more as active, and values a quarter to a half above the control carry no call in these data; other NCI protocols may use other cut-offs. Some entries hold several experiments; the results are listed from low to high. Some T/C values are followed by the survivors on the day toxicity was checked, most often the fifth; without a count, all were alive then.

Test system: L1210 leukemia ip in BDF1 mice, survival T/C
Assay: NCI In Vivo Anticancer Drug Screen. Data for tumor model L1210 Leukemia (intraperitoneal) in B6D2F1 (BDF1) mice
Conditions: T/C endpoint: mean survival time, higher T/C = longer survival
[1] = dose: 200.0 mg/kg/injection, schedule: Q04DX003 (ip), vehicle: Klucel (hydroxypropylcellulose) (HPC)
[2] = dose: 400.0 mg/kg/injection, schedule: Q04DX003 (ip), vehicle: Klucel (hydroxypropylcellulose) (HPC)
[3] = dose: 80.0 mg/kg/injection, schedule: Q01DX001 (ip), vehicle: carboxymethylcellulose (CMC)
[4] = dose: 400.0 mg/kg/injection, schedule: Q04DX003 (ip), vehicle: saline with Tween-80
[5] = dose: 80.0 mg/kg/injection, schedule: Q04DX003 (ip), vehicle: Klucel (hydroxypropylcellulose) (HPC)
[6] = dose: 100.0 mg/kg/injection, schedule: Q04DX003 (ip), vehicle: Klucel (hydroxypropylcellulose) (HPC)
[7] = dose: 400.0 mg/kg/injection, schedule: Q01DX001 (ip), vehicle: carboxymethylcellulose (CMC)
[8] = dose: 32.0 mg/kg/injection, schedule: Q01DX015 (ip), vehicle: carboxymethylcellulose (CMC)
[9] = dose: 300.0 mg/kg/injection, schedule: Q01DX001 (ip), vehicle: saline
[10] = dose: 100.0 mg/kg/injection, schedule: Q01DX009 (ip), vehicle: saline with Tween-80

## O=C(NCCBr)NC1CC1c1ccccc1 (stereo unspecified)
[1]
  survivor count: 1 of 6
[2]
  survivor count: 1 of 6

## Cc1c(NC(C)C)ccc(NC(C)C)c1C
dose: 400.0 mg/kg/injection, schedule: Q04DX002 (sc), vehicle: olive oil, sesame oil, peanut oil
  survivor count: 1 of 3

## O=[N+]([O-])/C=C/c1c(Cl)cccc1Cl
dose: 100.0 mg/kg/injection, schedule: Q01DX005 (ip), vehicle: saline with Tween-80
  survivor count: 3 of 7
dose: 200.0 mg/kg/injection, schedule: Q01DX005 (ip), vehicle: saline with Tween-80
  survivor count: 0 of 7
dose: 200.0 mg/kg/injection, schedule: Q01DX009 (ip), vehicle: Klucel (hydroxypropylcellulose) (HPC)
  survivor count: 1 of 6
dose: 400.0 mg/kg/injection, schedule: Q01DX005 (ip), vehicle: saline with Tween-80
  survivor count: 0 of 7

## Cc1ccc(NC(=O)N(CCCl)N=O)cc1NC(=O)c1ccccc1
dose: 0.9 mg/kg/injection, schedule: Q01DX009 (ip), vehicle: carboxymethylcellulose (CMC)
  T/C: 130 % of control
dose: 1.8 mg/kg/injection, schedule: Q01DX009 (ip), vehicle: carboxymethylcellulose (CMC)
  T/C: 133 % of control
dose: 3.0 mg/kg/injection, schedule: Q01DX009 (ip), vehicle: carboxymethylcellulose (CMC)
  T/C: 126 % of control
dose: 4.4 mg/kg/injection, schedule: Q01DX009 (ip), vehicle: carboxymethylcellulose (CMC)
  T/C: 131 % of control
dose: 6.7 mg/kg/injection, schedule: Q01DX009 (ip), vehicle: carboxymethylcellulose (CMC)
  T/C: 131 % of control
dose: 10.0 mg/kg/injection, schedule: Q01DX009 (ip), vehicle: carboxymethylcellulose (CMC)
  T/C: 146 % of control [5 of 6 alive]
dose: 52.0 mg/kg/injection, schedule: Q01DX001 (ip), vehicle: Klucel (hydroxypropylcellulose) (HPC)
  T/C: 148 % of control
dose: 53.0 mg/kg/injection, schedule: Q01DX001 (ip), vehicle: carboxymethylcellulose (CMC)
  T/C: 143 % of control
[3]
  T/C: 138 % of control
dose: 120.0 mg/kg/injection, schedule: Q01DX001 (ip), vehicle: carboxymethylcellulose (CMC)
  T/C: 139 % of control
dose: 177.0 mg/kg/injection, schedule: Q01DX001 (ip), vehicle: carboxymethylcellulose (CMC)
  T/C: 139 and 146 % of control
dose: 177.0 mg/kg/injection, schedule: Q01DX009 (ip), vehicle: carboxymethylcellulose (CMC)
  T/C: 125 and 144 % of control
dose: 266.0 mg/kg/injection, schedule: Q01DX001 (ip), vehicle: carboxymethylcellulose (CMC)
  T/C: 146 % of control
dose: 266.0 mg/kg/injection, schedule: Q01DX009 (ip), vehicle: carboxymethylcellulose (CMC)
  T/C: 141 % of control [5 of 6 alive]
dose: 400.0 mg/kg/injection, schedule: Q01DX009 (ip), vehicle: carboxymethylcellulose (CMC)
  survivor count: 6 of 6
dose: 600.0 mg/kg/injection, schedule: Q01DX001 (ip), vehicle: carboxymethylcellulose (CMC)
  T/C: 148 % of control

## Brc1ccc2oc3ccccc3c2c1
dose: 200.0 mg/kg/injection, schedule: Q04DX002 (ip), vehicle: saline
  T/C: 132 % of control

## CCC[CH2][Sn]1([CH2]CCC)[O]OC(c2ccc(C(=O)OCC)cc2)[O]1 (stereo unspecified)
dose: 12.5 mg/kg/injection, schedule: Q04DX002 (ip), vehicle: other
  survivor count: 0 of 3
dose: 25.0 mg/kg/injection, schedule: Q04DX002 (ip), vehicle: other
  survivor count: 0 of 3

## O=C(CC(c1ccccc1)N1CCN(c2ccccc2)CC1)c1ccc(F)cc1 (stereo unspecified)
dose: 100.0 mg/kg/injection, schedule: Q01DX009 (ip), vehicle: gum acacia
  survivor count: 6 of 6

## O=C(O)C1=C(C(=O)O)C2CCC1C2
[4]
  survivor count: 3 of 3

## O=[Se](c1ccccc1)c1ccccc1
dose: 100.0 mg/kg/injection, schedule: Q04DX002 (ip), vehicle: Klucel (hydroxypropylcellulose) (HPC)
  survivor count: 1 of 3
dose: 200.0 mg/kg/injection, schedule: Q04DX002 (ip), vehicle: Klucel (hydroxypropylcellulose) (HPC)
  survivor count: 0 of 3
dose: 400.0 mg/kg/injection, schedule: Q04DX002 (ip), vehicle: Klucel (hydroxypropylcellulose) (HPC)
  survivor count: 0 of 3

## O=[N+]([O-])CCCl
dose: 40.0 mg/kg/injection, schedule: Q04DX003 (ip), vehicle: Klucel (hydroxypropylcellulose) (HPC)
  survivor count: 0 of 6
[5]
  survivor count: 0 of 6
[6]
  survivor count: 1 of 6
[1]
  survivor count: 1 of 6
[2]
  survivor count: 0 of 6

## O=S1(=O)OCc2ccccc21
dose: 200.0 mg/kg/injection, schedule: Q01DX009 (ip), vehicle: acetone
  survivor count: 6 of 6
[7]
  survivor count: 0 of 6
dose: 400.0 mg/kg/injection, schedule: Q04DX003 (ip), vehicle: saline
  survivor count: 2 of 6

## CCOC(=O)c1cc[n+](C)c2ccccc12
dose: 75.0 mg/kg/injection, schedule: Q01DX001 (ip), vehicle: acetone
  survivor count: 6 of 6
dose: 150.0 mg/kg/injection, schedule: Q04DX003 (ip), vehicle: acetone
  survivor count: 5 of 6
dose: 300.0 mg/kg/injection, schedule: Q01DX001 (ip), vehicle: acetone
  survivor count: 0 of 6

## CC(C)C(CN)(CCCN1CCOCC1)c1cccc2ccccc12 (stereo unspecified)
dose: 400.0 mg/kg/injection, schedule: Q01DX009 (ip), vehicle: saline with Tween-80
  survivor count: 1 of 6

## Cc1c2ccccc2cc2cc[n+]3ccccc3c12
[8]
  T/C: 141 % of control
  survivor count: 2 of 6
dose: 64.0 mg/kg/injection, schedule: Q01DX015 (ip), vehicle: carboxymethylcellulose (CMC)
  survivor count: 0 of 6
[3]
  survivor count: 1 of 4
[5]
  survivor count: 3 of 6
dose: 128.0 mg/kg/injection, schedule: Q01DX015 (ip), vehicle: carboxymethylcellulose (CMC)
  survivor count: 0 of 6

## COC(=O)C(C)NC(=O)C(C)NC(=O)c1cnc2ccccc2n1 (stereo unspecified)
[7]
  survivor count: 3 of 6

## CCOC(=O)C1=CN=NC1=[N+]=[N-]
dose: 40.0 mg/kg/injection, schedule: Q01DX001 (ip), vehicle: saline
  survivor count: 0 of 6
dose: 75.0 mg/kg/injection, schedule: Q01DX001 (ip), vehicle: saline
  survivor count: 0 of 6
dose: 150.0 mg/kg/injection, schedule: Q01DX001 (ip), vehicle: saline
  survivor count: 0 of 6
[9]
  survivor count: 0 of 6

## FC1(F)SC2CCCCCCC2C1(F)F (stereo unspecified)
[6]
  survivor count: 0 of 6
[1]
  survivor count: 0 of 6
[2]
  survivor count: 0 of 6

## N#CCCCN=[N+]=[N-]
dose: 75.0 mg/kg/injection, schedule: Q04DX003 (ip), vehicle: saline
  survivor count: 3 of 6
dose: 150.0 mg/kg/injection, schedule: Q04DX003 (ip), vehicle: saline
  survivor count: 0 of 6

## O=C(Nc1cccc(C(F)(F)F)c1)c1ccc(C(=O)Nc2cccc(C(F)(F)F)c2)cc1
[10]
  survivor count: 6 of 6
dose: 200.0 mg/kg/injection, schedule: Q01DX009 (ip), vehicle: saline with Tween-80
  survivor count: 5 of 6

## Clc1ccc(C(c2ccc(Cl)cc2)N2CCNCC2)cc1
dose: 50.0 mg/kg/injection, schedule: Q01DX009 (ip), vehicle: saline with Tween-80
  survivor count: 2 of 6
[10]
  survivor count: 0 of 6
dose: 100.0 mg/kg/injection, schedule: Q04DX003 (ip), vehicle: saline with Tween-80
  survivor count: 4 of 6
dose: 200.0 mg/kg/injection, schedule: Q04DX003 (ip), vehicle: saline with Tween-80
  survivor count: 0 of 6
[4]
  survivor count: 1 of 6

## CCc1ccc(/C=C/c2ccc(O)c3ccccc23)[n+](C)c1
[9]
  survivor count: 0 of 6

## N#CC12OC1(C#N)C(=O)c1ccccc1C2=O (stereo unspecified)
dose: 150.0 mg/kg/injection, schedule: Q01DX001 (ip), vehicle: Klucel (hydroxypropylcellulose) (HPC)
  survivor count: 0 of 6
dose: 300.0 mg/kg/injection, schedule: Q01DX001 (ip), vehicle: Klucel (hydroxypropylcellulose) (HPC)
  survivor count: 0 of 6

## Cc1ccc2[nH]c(C)c(C3=CC(=O)c4ccccc4C3=O)c2c1
dose: 400.0 mg/kg/injection, schedule: Q01DX001 (ip), vehicle: other
  survivor count: 0 of 4

## CCCCCCCCCCCCCCCCNCCCN
[4]
  survivor count: 1 of 6
